Data reported in patent US20020016384A1, “Hydrolysis-stable and polymerizable acrylophosphonic acid” (Ivoclar Vivadent AG., priority 2000, published 2002).

Experiment: Radical homopolymerization of monomers in water
Conditions: 20.0 mmol monomer in 10 ml water, 2.0 mol-% 2,2'-azobis(isobutyric acid amidine)dihydrochloride, argon, 65° C., 2 hours

## C=C(COCCP(=O)(O)O)C(=O)N(CC)CC [Monomer 3, 2-[4-(dihydroxyphosphoryl)-2-oxabutyl]-acrylic acid diethylamide]
  monomer conversion rate, gravimetrically established: 23.1%

## C=C(C#N)COCCP(=O)(O)O [Monomer 5, 2-[4-(dihydroxyphosphoryl)-2-oxabutyl]-acrylonitrile]
  monomer conversion rate, gravimetrically established: 13.7%
